From PubChem BioAssay AID270 (DTP/NCI, 2004)
The list is a part of this screen's results and no random one: it is rich in T/C values a quarter to a half above the control, in often repeated tests (any T/C) and in doses without a T/C. Further doses and runs are listed elsewhere. T/C is the treated group as % of the vehicle group. Some entries give survivors of the animals treated and no T/C: the source holds a T/C of zero for them, seemingly a mark for toxic or unscored doses. Some doses without a T/C left all or most animals alive at the check, yet need not have been tolerated: the source hardly ever lists a survival T/C far under the control, and the zero likely stands for such cases as well. Survivors were counted at the toxicity check, usually on the fifth day, unless a day is given; later deaths do not show. Schedules are NCI's codes, read here as Q, the interval in days (D) or hours (H), X, the number of doses. Some entries were tested several times; the values are given in rising order. For survival time, this PubChem deposit counts one and a half times the control or more as active, and values a quarter to a half above the control carry no call in these data; other NCI protocols may use other cut-offs.

Tested on: BDF1 mice, s.c. Lewis lung carcinoma, T/C %
Experiment: NCI In Vivo Anticancer Drug Screen. Data for tumor model Lewis Lung Carcinoma (subcutaneous) in B6D2F1 (BDF1) mice
Experimental: The antitumor activity of compounds was measured in mice bearing transplantable tumors. Survival or tumor size were measured and the results are expressed as the measurement made in the treated group (T) divided by the measurement made in the vehicle treated control group (C). The tumor model used in this assay is Lewis Lung Carcinoma (subcutaneous) in B6D2F1 (BDF1) mice

[1] = T/C endpoint: median survival time, dose: 32.0 mg/kg/injection, schedule: Q07DX002 (ip), vehicle: saline with Tween-80, higher T/C = longer survival
[2] = T/C endpoint: median survival time, dose: 100.0 mg/kg/injection, schedule: Q01DX009 (ip), vehicle: saline with Tween-80, higher T/C = longer survival

For C=C1CC/C=C(\C)CCC2C1CC2(C)C (configuration not stated), the survivor count (T/C endpoint: mean tumor weight, dose: 200.0 mg/kg/injection, schedule: Q01DX011 (ip), vehicle: saline, higher T/C = larger tumour) was 2 of 6.
COC(=O)c1nc(-c2ccc3c(n2)C(=O)C(N)=C(OC)C3=O)c(N)c(-c2ccc(OC)c(OC)c2O)c1C was tested, and the survivor count (T/C endpoint: mean tumor weight, dose: 2.0 mg/kg/injection, schedule: Q01DX011 (ip), vehicle: other, higher T/C = larger tumour) was 1 of 6.
O=[N+]([O-])c1cc([N+](=O)[O-])c(Br)cc1Cl was tested, and the survivor count (T/C endpoint: median survival time, dose: 10.0 mg/kg/injection, schedule: Q01DX009 (ip), vehicle: Klucel (hydroxypropylcellulose) (HPC), higher T/C = longer survival) was 10 of 10, the survivor count (T/C endpoint: median survival time, dose: 20.0 mg/kg/injection, schedule: Q01DX009 (ip), vehicle: Klucel (hydroxypropylcellulose) (HPC), higher T/C = longer survival) was 10 of 10 and the survivor count (T/C endpoint: median survival time, dose: 40.0 mg/kg/injection, schedule: Q01DX009 (ip), vehicle: Klucel (hydroxypropylcellulose) (HPC), higher T/C = longer survival) was 0 of 10.
C[CH2][Pb]([CH2]C)([CH2]C)[O]C(=O)COC was tested, and the survivor count (T/C endpoint: median survival time, dose: 6.25 mg/kg/injection, schedule: Q01DX009 (ip), vehicle: Klucel (hydroxypropylcellulose) (HPC), higher T/C = longer survival) was 9 of 10.
CC(C)CCCCCCCCCCCCC(=O)NCC(=O)NC1C(O)C(O)C(Nc2ncnc3nc[nH]c23)OC1C(O)CO (configuration not stated) was tested, and the survivor count (T/C endpoint: mean tumor weight, dose: 2.0 mg/kg/injection, schedule: Q01DX011 (ip), vehicle: saline, higher T/C = larger tumour) was 0 of 6.
For Nc1ccc(OC(=O)Oc2ccc(N)cc2)cc1, the survivor count (T/C endpoint: mean tumor weight, dose: 250.0 mg/kg/injection, schedule: Q01DX011 (ip), vehicle: saline, higher T/C = larger tumour) was 0 of 6 and the survivor count (T/C endpoint: mean tumor weight, dose: 500.0 mg/kg/injection, schedule: Q01DX011 (ip), vehicle: saline, higher T/C = larger tumour) was 0 of 6.
CN1c2c(nc(N)[nH]c2=O)NCC1CCNc1ccc(C(=O)NC(CCC(=O)O)C(=O)O)cc1 (configuration not stated) was tested, and the T/C (T/C endpoint: median survival time, dose: 600.0 mg/kg/injection, schedule: Q01DX009 (ip), vehicle: saline, higher T/C = longer survival) was 127 % of control.
In the case of COc1ccc2c(c1)CC[C@@H]1[C@@H]2CC[C@@]2(C)[C@H]1CC[C@@]2(O)C(F)=C(F)F, the T/C (T/C endpoint: median survival time, dose: 25.0 mg/kg/injection, schedule: Q01DX009 (sc), vehicle: steroid suspending solution, higher T/C = longer survival) is reported as 128 % of control, the survivor count (T/C endpoint: median survival time, dose: 50.0 mg/kg/injection, schedule: Q01DX009 (sc), vehicle: steroid suspending solution, higher T/C = longer survival) is reported as 10 of 10 and the survivor count (T/C endpoint: median survival time, dose: 100.0 mg/kg/injection, schedule: Q01DX009 (sc), vehicle: steroid suspending solution, higher T/C = longer survival) is reported as 10 of 10.
With c1ccc(N/N=C2/CCN3CCCc4cccc2c43)cc1 the survivor count (T/C endpoint: median survival time, dose: 12.5 mg/kg/injection, schedule: Q01DX009 (ip), vehicle: DMSO, higher T/C = longer survival) was 4 of 10, the survivor count (T/C endpoint: median survival time, dose: 25.0 mg/kg/injection, schedule: Q01DX009 (ip), vehicle: DMSO, higher T/C = longer survival) was 7 of 10 and the survivor count (T/C endpoint: median survival time, dose: 50.0 mg/kg/injection, schedule: Q01DX009 (ip), vehicle: DMSO, higher T/C = longer survival) was 3 of 10. The survivor count (T/C endpoint: median survival time, dose: 100.0 mg/kg/injection, schedule: Q01DX009 (ip), vehicle: DMSO, higher T/C = longer survival) was 0 of 10 and the survivor count (T/C endpoint: median survival time, dose: 100.0 mg/kg/injection, schedule: Q04DX003 (ip), vehicle: DMSO, higher T/C = longer survival) was 10 of 10.
O=NN(CCF)C(=O)NC1CCSCC1 was tested, and the survivor count (T/C endpoint: median survival time, dose: 10.0 mg/kg/injection, schedule: Q01DX009 (ip), vehicle: saline with Tween-80, higher T/C = longer survival) was 10 of 10, the T/C (T/C endpoint: median survival time, dose: 13.0 mg/kg/injection, schedule: Q04DX004 (ip), vehicle: saline with Tween-80, higher T/C = longer survival) was 143 % of control and the survivor count (T/C endpoint: median survival time, dose: 20.0 mg/kg/injection, schedule: Q01DX009 (ip), vehicle: saline with Tween-80, higher T/C = longer survival) was 0 of 10. The T/C (T/C endpoint: median survival time, dose: 20.0 mg/kg/injection, schedule: Q07DX002 (ip), vehicle: saline with Tween-80, higher T/C = longer survival) was 139 % of control, the survivor count (T/C endpoint: median survival time, dose: 23.0 mg/kg/injection, schedule: Q04DX004 (ip), vehicle: saline with Tween-80, higher T/C = longer survival) was 10 of 10 and the survivor count (T/C endpoint: median survival time, dose: 25.0 mg/kg/injection, schedule: Q07DX002 (ip), vehicle: saline with Tween-80, higher T/C = longer survival) was 0 of 10 on day 11. For the same compound, the T/C [1] was 128 % of control, the survivor count [1] was 0 of 10 on day 11 and 1 of 10 and the survivor count (T/C endpoint: median survival time, dose: 39.0 mg/kg/injection, schedule: Q07DX002 (ip), vehicle: saline with Tween-80, higher T/C = longer survival) was 0 of 10 on day 11 and 6 of 10. For the same compound, the survivor count (T/C endpoint: median survival time, dose: 40.0 mg/kg/injection, schedule: Q01DX009 (ip), vehicle: saline with Tween-80, higher T/C = longer survival) was 0 of 10 and the survivor count (T/C endpoint: median tumor weight (est.), dose: 41.0 mg/kg/injection, schedule: Q01DX001 (ip), vehicle: saline with Tween-80, higher T/C = larger tumour) was 5 of 10 on day 19.
In the case of O=c1cnn(C2OC(CO)C(O)C2O)c(=O)[nH]1 (configuration not stated), the T/C (T/C endpoint: median survival time, dose: 75.0 mg/kg/injection, schedule: Q01DX009 (ip), vehicle: Klucel (hydroxypropylcellulose) (HPC), higher T/C = longer survival) is reported as 130 % of control, the T/C (T/C endpoint: median survival time, dose: 300.0 mg/kg/injection, schedule: Q01DX009 (ip), vehicle: Klucel (hydroxypropylcellulose) (HPC), higher T/C = longer survival) is reported as 142 % of control and the survivor count (T/C endpoint: median survival time, dose: 1200.0 mg/kg/injection, schedule: Q01DX009 (ip), vehicle: Klucel (hydroxypropylcellulose) (HPC), higher T/C = longer survival) is reported as 9 of 10.
C[C@]12C=CC(=O)C=C1CC[C@@H]1[C@@H]2C(=O)C[C@@]2(C)[C@H]1CC[C@]2(O)C(=O)CO was tested, and the survivor count (T/C endpoint: median survival time, dose: 50.0 mg/kg/injection, schedule: Q01DX009 (ip), vehicle: Klucel (hydroxypropylcellulose) (HPC), higher T/C = longer survival) was 9 of 10, the survivor count (T/C endpoint: median survival time, dose: 50.0 mg/kg/injection, schedule: Q01DX009 (ip), vehicle: saline, higher T/C = longer survival) was 8 of 8 and the survivor count (T/C endpoint: median survival time, dose: 100.0 mg/kg/injection, schedule: Q01DX009 (ip), vehicle: Klucel (hydroxypropylcellulose) (HPC), higher T/C = longer survival) was 10 of 10. The T/C [2] was 125 % of control, the survivor count [2] was 10 of 10 and the survivor count (T/C endpoint: median survival time, dose: 100.0 mg/kg/injection, schedule: Q01DX009 (ip), vehicle: saline, higher T/C = longer survival) was 8 of 8. For the same compound, the survivor count (T/C endpoint: median survival time, dose: 200.0 mg/kg/injection, schedule: Q01DX009 (ip), vehicle: Klucel (hydroxypropylcellulose) (HPC), higher T/C = longer survival) was 10 of 10, the survivor count (T/C endpoint: median survival time, dose: 200.0 mg/kg/injection, schedule: Q01DX009 (ip), vehicle: saline with Tween-80, higher T/C = longer survival) was 10 of 10 and the survivor count (T/C endpoint: median survival time, dose: 200.0 mg/kg/injection, schedule: Q01DX009 (ip), vehicle: saline, higher T/C = longer survival) was 8 of 8. For the same compound, the survivor count (T/C endpoint: median survival time, dose: 400.0 mg/kg/injection, schedule: Q01DX009 (ip), vehicle: Klucel (hydroxypropylcellulose) (HPC), higher T/C = longer survival) was 10 of 10, the survivor count (T/C endpoint: median survival time, dose: 400.0 mg/kg/injection, schedule: Q01DX009 (ip), vehicle: saline with Tween-80, higher T/C = longer survival) was 10 of 10 and the survivor count (T/C endpoint: median survival time, dose: 400.0 mg/kg/injection, schedule: Q01DX009 (ip), vehicle: saline, higher T/C = longer survival) was 8 of 8. For the same compound, the survivor count (T/C endpoint: median tumor weight (est.), dose: 50.0 mg/kg/injection, schedule: Q01DX009 (ip), vehicle: Klucel (hydroxypropylcellulose) (HPC), higher T/C = larger tumour) was 6 of 10, the survivor count (T/C endpoint: median tumor weight (est.), dose: 100.0 mg/kg/injection, schedule: Q01DX009 (ip), vehicle: Klucel (hydroxypropylcellulose) (HPC), higher T/C = larger tumour) was 4 of 10 and the survivor count (T/C endpoint: median tumor weight (est.), dose: 100.0 mg/kg/injection, schedule: Q01DX009 (ip), vehicle: saline with Tween-80, higher T/C = larger tumour) was 4 of 10. For the same compound, the survivor count (T/C endpoint: median tumor weight (est.), dose: 200.0 mg/kg/injection, schedule: Q01DX009 (ip), vehicle: Klucel (hydroxypropylcellulose) (HPC), higher T/C = larger tumour) was 3 of 10 and the survivor count (T/C endpoint: median tumor weight (est.), dose: 400.0 mg/kg/injection, schedule: Q01DX009 (ip), vehicle: saline with Tween-80, higher T/C = larger tumour) was 1 of 10.
For COc1cc(NS(C)(=O)=O)ccc1Nc1c2ccc(Cl)cc2nc2c(OC)cccc12, the T/C (T/C endpoint: median survival time, dose: 1.2 mg/kg/injection, schedule: Q01DX009 (ip), vehicle: other, higher T/C = longer survival) was 134 % of control, the T/C (T/C endpoint: median survival time, dose: 4.5 mg/kg/injection, schedule: Q01DX009 (ip), vehicle: other, higher T/C = longer survival) was 145 % of control and the survivor count (T/C endpoint: median survival time, dose: 9.0 mg/kg/injection, schedule: Q01DX009 (ip), vehicle: other, higher T/C = longer survival) was 10 of 10. The survivor count (T/C endpoint: median survival time, dose: 18.0 mg/kg/injection, schedule: Q01DX009 (ip), vehicle: other, higher T/C = longer survival) was 10 of 10 and the survivor count (T/C endpoint: median survival time, dose: 36.0 mg/kg/injection, schedule: Q01DX009 (ip), vehicle: other, higher T/C = longer survival) was 10 of 10.
CCn1cnc2c(=S)nc(N)[nH]c21 was tested, and the survivor count (T/C endpoint: mean tumor weight, dose: 60.0 mg/kg/injection, schedule: Q01DX011 (ip), vehicle: other, higher T/C = larger tumour) was 0 of 6, the survivor count (T/C endpoint: mean tumor weight, dose: 90.0 mg/kg/injection, schedule: Q01DX011 (ip), vehicle: other, higher T/C = larger tumour) was 0 of 6 and the survivor count (T/C endpoint: mean tumor weight, dose: 120.0 mg/kg/injection, schedule: Q01DX011 (ip), vehicle: other, higher T/C = larger tumour) was 0 of 6.
